Laboratory results: publication PMC7673785
No constants are given. Whether binding was seen depends on the method and setting. Binding seen in cells or lysates may run through a third protein. A yes stands for co-enrichment or nearness to the bait. Other partners may have been found.

Chains of the proteins cited; added tags and fusions are not shown.
UniProt Q9Y572: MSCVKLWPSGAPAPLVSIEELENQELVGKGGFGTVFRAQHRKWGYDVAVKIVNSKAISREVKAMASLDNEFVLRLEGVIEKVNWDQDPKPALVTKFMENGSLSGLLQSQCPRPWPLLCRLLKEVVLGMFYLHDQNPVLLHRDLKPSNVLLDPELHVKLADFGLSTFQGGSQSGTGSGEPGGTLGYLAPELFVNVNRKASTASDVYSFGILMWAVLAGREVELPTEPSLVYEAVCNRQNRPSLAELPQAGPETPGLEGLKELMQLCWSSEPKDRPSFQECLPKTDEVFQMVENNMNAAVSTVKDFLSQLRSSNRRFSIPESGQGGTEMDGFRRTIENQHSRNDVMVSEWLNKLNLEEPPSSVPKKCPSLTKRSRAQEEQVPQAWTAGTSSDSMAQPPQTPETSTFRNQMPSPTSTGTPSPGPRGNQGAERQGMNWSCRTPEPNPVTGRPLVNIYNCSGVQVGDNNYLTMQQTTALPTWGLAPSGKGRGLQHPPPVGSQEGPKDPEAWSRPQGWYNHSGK
UniProt P49674: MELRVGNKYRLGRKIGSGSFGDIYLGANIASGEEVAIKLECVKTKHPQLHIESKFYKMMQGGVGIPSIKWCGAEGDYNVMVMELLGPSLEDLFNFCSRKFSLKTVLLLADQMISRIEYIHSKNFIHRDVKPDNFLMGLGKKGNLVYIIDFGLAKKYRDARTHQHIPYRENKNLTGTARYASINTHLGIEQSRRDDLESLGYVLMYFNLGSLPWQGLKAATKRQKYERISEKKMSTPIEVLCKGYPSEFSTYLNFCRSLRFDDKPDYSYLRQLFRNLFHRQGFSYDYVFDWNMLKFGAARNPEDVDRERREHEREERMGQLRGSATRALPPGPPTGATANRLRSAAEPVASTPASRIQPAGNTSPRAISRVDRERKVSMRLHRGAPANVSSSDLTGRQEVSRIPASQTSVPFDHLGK

Target: HA-3×Flag-RIPK3 (in HT29-HA-3×Flag-RIPK3 cells) (human) (UniProt Q9Y572)
Assay: affinity purification with mass spectrometry; HT29-HA-3×Flag-RIPK3 cell lysates immunoprecipitated with anti-Flag resin; protein mixture analysed by mass spectrometry

## CSNK1E (from UniProt P49674 1-416) (enzyme)
  binding: binds
